[ ]: non-standard residue; d: D form. Aib = CC(C)(N)C(=O)O
Assay: general procedure: Fmoc solid-phase peptide synthesis; Fmoc-L-Thr(tBu)-Wang resin (GL Biochem, loading capacity: 0.533 mmol/g); HCTU/4-methylmorpholine
Settings: whole synthesis, analytical high-performance liquid chromatography and HPLC/mass spectrometry

Substance	final HPLC purity [%]
H-HSQGTFTSDYSKYLDV[Aib]RAQEFVQWLEST-OH (SMILES CC(C)C[C@H](NC(=O)[C@H](Cc1c[nH]c2ccccc12)NC(=O)[C@H](CCC(N)=O)NC(=O)[C@@H](NC(=O)[C@H](Cc1ccccc1)NC(=O)[C@H](CCC(=O)O)NC(=O)[C@H](CCC(N)=O)NC(=O)[C@H](C)NC(=O)[C@H](CCCNC(=N)N)NC(=O)C(C)(C)NC(=O)[C@@H](NC(=O)[C@H](CC(=O)O)NC(=O)[C@H](CC(C)C)NC(=O)[C@H](Cc1ccc(O)cc1)NC(=O)[C@H](CCCCN)NC(=O)[C@H](CO)NC(=O)[C@H](Cc1ccc(O)cc1)NC(=O)[C@H](CC(=O)O)NC(=O)[C@H](CO)NC(=O)[C@@H](NC(=O)[C@H](Cc1ccccc1)NC(=O)[C@@H](NC(=O)CNC(=O)[C@H](CCC(N)=O)NC(=O)[C@H](CO)NC(=O)[C@@H](N)Cc1c[nH]cn1)[C@@H](C)O)[C@@H](C)O)C(C)C)C(C)C)C(=O)N[C@@H](CCC(=O)O)C(=O)N[C@@H](CO)C(=O)N[C@H](C(=O)O)[C@@H](C)O)	86.97
H-HSQGTFTSDYSKYLES[Aib]RAQDFVEWLLET-OH	93.40
H-HSQGTFTSDYSKYLES[Aib]RAEDFVRWLEST-OH (SMILES CC(C)C[C@H](NC(=O)[C@H](Cc1ccc(O)cc1)NC(=O)[C@H](CCCCN)NC(=O)[C@H](CO)NC(=O)[C@H](Cc1ccc(O)cc1)NC(=O)[C@H](CC(=O)O)NC(=O)[C@H](CO)NC(=O)[C@@H](NC(=O)[C@H](Cc1ccccc1)NC(=O)[C@@H](NC(=O)CNC(=O)[C@H](CCC(N)=O)NC(=O)[C@H](CO)NC(=O)[C@@H](N)Cc1c[nH]cn1)[C@@H](C)O)[C@@H](C)O)C(=O)N[C@@H](CCC(=O)O)C(=O)N[C@@H](CO)C(=O)NC(C)(C)C(=O)N[C@@H](CCCNC(=N)N)C(=O)N[C@@H](C)C(=O)N[C@@H](CCC(=O)O)C(=O)N[C@@H](CC(=O)O)C(=O)N[C@@H](Cc1ccccc1)C(=O)N[C@H](C(=O)N[C@@H](CCCNC(=N)N)C(=O)N[C@@H](Cc1c[nH]c2ccccc12)C(=O)N[C@@H](CC(C)C)C(=O)N[C@@H](CCC(=O)O)C(=O)N[C@@H](CO)C(=O)N[C@H](C(=O)O)[C@@H](C)O)C(C)C)	88.72
H-HSQGTFTSDYSKYLDL[Aib]RAEDFVQWLEST-OH	97.05
H-HSQGTFTSDYSKYLES[Aib]RAQDFVQWLLET-OH	97.01
H-HSQGTFTSDYSKYLES[Aib]RAQDFVEWLEET-OH	97.04
H-HSQGTFTSDYSKYLES[Aib]RAQDFVQWLLST-OH	88.63
H-HSQGTFTSDYSKYLES[Aib]RAQEFVQWLEST-OH	93.59

Source: patent US20240279298A1 (BEIJING TUO JIE BIOPHARMACEUTICAL CO. LTD., priority 2021, published 2024)
